Laboratory results reported in paper PMC7819943, “Rice protein-binding microarrays: a tool to detect cis-acting elements near promoter regions in rice”.
Some of the results follow.

Protein sequences, listed by entry. Tags and fused reporters are not part of them.
UniProt Q0JBA9, entry or part of it: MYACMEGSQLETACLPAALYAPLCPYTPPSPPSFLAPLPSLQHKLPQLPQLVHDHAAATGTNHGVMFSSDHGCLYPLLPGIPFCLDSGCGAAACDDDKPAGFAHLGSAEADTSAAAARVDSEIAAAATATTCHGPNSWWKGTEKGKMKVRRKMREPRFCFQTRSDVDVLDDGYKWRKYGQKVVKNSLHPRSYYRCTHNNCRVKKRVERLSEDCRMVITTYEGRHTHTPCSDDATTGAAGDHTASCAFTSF

biological target: OsWRKY34 (Oryza sativa, UniProt Q0JBA9 1-250); experiment: protein-binding microarray (RPBM); PBS, 2% BSA, 51.3 ng/ul salmon testes DNA, 50 uM zinc acetate, 200 nM TF, 25 C, 1 h; high values mean tight binding; conditions: protein: recombinant; tags: N-terminal polyhistidine and DsRed monomer fusion (pET32a); label: CyDye5-dUTP incorporated in the synthesized complementary strand; 3' TTTTT single-stranded linker to array surface; dsDNA, one strand shown
Procedure, shortened: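 Transcription factors, each fused N-terminally to a polyhistidine tag and DsRed, were expressed in E. coli BL21-CodonPlus and purified on Ni–NTA. A custom Agilent array was made double-stranded by primer extension with Cy5-dUTP and blocked with 2% BSA. It was incubated with 200 nM protein in PBS, 2% BSA, salmon testes DNA and 50 µM zinc acetate at 25 °C for 1 h, then washed. The binding signal is per-feature fluorescence intensity (arbitrary units) read on an Axon 4000B scanner.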

Sequence | binding signal
GTCTTTTGGTTGCTTGATGTCGTACTACGTAGATCCTTGTCGGAGTCACCTAGTGCAG | 9510 fluorescence intensity (a.u.)
TAGTTCTGACCTTTGAGCTGTACTCTTTTCTTTGTCATGGCGGAGTCACCTAGTGCAG | 8100 fluorescence intensity (a.u.)
GCCGCGTTCCATTGTTTTTCATCAAATCCTCCGCTTTTCCCGGAGTCACCTAGTGCAG | 13500 fluorescence intensity (a.u.)
ATCCGTCACAAATTTTCTTCCAGATGAACAAGTCACTTTCCGGAGTCACCTAGTGCAG | 8940 fluorescence intensity (a.u.)
TTCTCTTTACATGCTACATATGACCTACCAGAATTACGTACGGAGTCACCTAGTGCAG | 8690 fluorescence intensity (a.u.)
GCTTCGTGTTTTTTTAAGCCGGAGGGCGTCGAGTTGACTCCGGAGTCACCTAGTGCAG | 8270 fluorescence intensity (a.u.)
GCACCTCCTCGCGGCGTCCCACCACGCCTGCGACTTCTTCCGGAGTCACCTAGTGCAG | 9950 fluorescence intensity (a.u.)
AGCAGATGGAGTATATCTTTAGCTAATTAAGCTATAGCTACGGAGTCACCTAGTGCAG | 23000 fluorescence intensity (a.u.)
CGCTGTTTTTTTTTTATTTTGACGGGTAGTAGAGGCCGCGCGGAGTCACCTAGTGCAG | 9990 fluorescence intensity (a.u.)
TATTTATTCGCTTTTGATATCCATCACGCAGCCGCTCCGGCGGAGTCACCTAGTGCAG | 10100 fluorescence intensity (a.u.)
TGCTAAATTGCTAATACATACCTCTATGTTGTTGTGTTTTCGGAGTCACCTAGTGCAG | 8580 fluorescence intensity (a.u.)
TGGCTCTGTAGGTTGGGATCTTCTACTCACTCGTTTTTCACGGAGTCACCTAGTGCAG | 8840 fluorescence intensity (a.u.)
GTCGCCGCCGCCGCCGCGTCGCCGGATGCCGATCCTCCTCCGGAGTCACCTAGTGCAG | 8020 fluorescence intensity (a.u.)
CTGCGGCGAGAGGTGGGAGGCGGGGCGGTTGTACGTGTGCCGGAGTCACCTAGTGCAG | 11000 fluorescence intensity (a.u.)
CAAAACAGCCGCGTTTTGGCTCACTAGTCACTTGTTTGACCGGAGTCACCTAGTGCAG | 9710 fluorescence intensity (a.u.)
CCCGCCGTGCCGCTGCCACCGGGCTCACAGACCTCTCTCCCGGAGTCACCTAGTGCAG | 10100 fluorescence intensity (a.u.)
TCCTCCTCCTCTGCTTCCATTCTCGACTCCACCAAGTGTTCGGAGTCACCTAGTGCAG | 8170 fluorescence intensity (a.u.)
GTCTATCTGGCCACATGCCGTCAGTTAGACCGGCCCCACACGGAGTCACCTAGTGCAG | 8440 fluorescence intensity (a.u.)
TTTTATCAAACGTTTGACCATTCGTCTTATTCAAAAAATTCGGAGTCACCTAGTGCAG | 9200 fluorescence intensity (a.u.)
ATCTTATCTATAAATACGCATGCCCCTTCCTAGTCAATCCCGGAGTCACCTAGTGCAG | 8170 fluorescence intensity (a.u.)
CTCCATGGCTCATCCCTTCTCTGTATATTTGGCGGTAAATCGGAGTCACCTAGTGCAG | 8970 fluorescence intensity (a.u.)

Sequence | binding signal
GGCCGCTGTTCCTCTAGCTAAAAGTCTTGGTAATTGTTCACGGAGTCACCTAGTGCAG | 10200 fluorescence intensity (a.u.)
GTCACCCTTCACCACGGCCATCTTCTCCTCGCTCGCCGTCCGGAGTCACCTAGTGCAG | 11200 fluorescence intensity (a.u.)
ATTCCTGTGTTTTGCAATTCTCTGTTTTACAATTGTATTCCGGAGTCACCTAGTGCAG | 12200 fluorescence intensity (a.u.)
CATTTCGTGTATCATCTCAATCGTCTCATTTCCTCTCATCCGGAGTCACCTAGTGCAG | 13100 fluorescence intensity (a.u.)
GGGGATAGGATTCTGTATGATTGATTTGATTGGGTTGGTTCGGAGTCACCTAGTGCAG | 10500 fluorescence intensity (a.u.)
GCAACGTTGACTTAATTGTTTTTTTTTGTTTTATCTGTTTCGGAGTCACCTAGTGCAG | 12400 fluorescence intensity (a.u.)
ACTTTATTGCAACCAATTTTTGTTTGATTTGCTCTTGATTCGGAGTCACCTAGTGCAG | 9640 fluorescence intensity (a.u.)
CCCTCTGCATGCCTTAATTTTGTGGATCTCTCGCTCGATCCGGAGTCACCTAGTGCAG | 12300 fluorescence intensity (a.u.)
TTCCTCGATCTCTCAGGCTACGTTTTGATGGCTTACTGCACGGAGTCACCTAGTGCAG | 8510 fluorescence intensity (a.u.)
AGACGGACGGGGTAGAGTTGGGGTCTCGCGGTGAGCCGATCGGAGTCACCTAGTGCAG | 10300 fluorescence intensity (a.u.)
GGGAGCTGAAAAGCAAACTCTCGTCTCTCTGTGTATGTTCCGGAGTCACCTAGTGCAG | 9480 fluorescence intensity (a.u.)
TCATCAGTGCCCTATCAGTCCCGGCAAATCCTTAATTAATCGGAGTCACCTAGTGCAG | 8360 fluorescence intensity (a.u.)
GCTCTCTCTCTCTCTCTCTTTGCTCGATTCGCCGGCGATGCGGAGTCACCTAGTGCAG | 8130 fluorescence intensity (a.u.)
GCTAGTTTTAAAAATTAACATATCATCTACCGTACTTTAACGGAGTCACCTAGTGCAG | 8240 fluorescence intensity (a.u.)
CGGAATCTATAATTTGTTTTGTTATTAGTCTATGTTTAATCGGAGTCACCTAGTGCAG | 9330 fluorescence intensity (a.u.)
TCTCCATTTGGGCCACTGTTGCATTTTCCTACTTTGCTACCGGAGTCACCTAGTGCAG | 10500 fluorescence intensity (a.u.)
AACAGGGCCATAAGCGTGCACATTTGCATTATATTTTTCCCGGAGTCACCTAGTGCAG | 8660 fluorescence intensity (a.u.)
GCTTCGCGATAAATACGATATTTTTTTTTGAGATTTTTTTCGGAGTCACCTAGTGCAG | 8200 fluorescence intensity (a.u.)
TCTACCTACTTTCTTAATACACGTGCGTACCTAAAAAAATCGGAGTCACCTAGTGCAG | 8280 fluorescence intensity (a.u.)
CTAATGTTTTTGCTCTATTTTATTTTGTGTTGTGACCAAACGGAGTCACCTAGTGCAG | 10600 fluorescence intensity (a.u.)
TCCCTCGCCGCCGGCCGCCGCCCGCAGATTGGATTGGATTCGGAGTCACCTAGTGCAG | 11500 fluorescence intensity (a.u.)

Nothing new here: entries from further up.
Sequence | binding signal
ATTCCTGTGTTTTGCAATTCTCTGTTTTACAATTGTATTCCGGAGTCACCTAGTGCAG | 12200 fluorescence intensity (a.u.)
CATTTCGTGTATCATCTCAATCGTCTCATTTCCTCTCATCCGGAGTCACCTAGTGCAG | 13100 fluorescence intensity (a.u.)
